Data: the supplement of paper PMC10849652
Some of the results follow.

Chains of the proteins cited; added tags and fusions are not shown. Lines headed by an entry give the natural chain unless they say otherwise; changes in a name come on top.
UniProt Q8WZA1: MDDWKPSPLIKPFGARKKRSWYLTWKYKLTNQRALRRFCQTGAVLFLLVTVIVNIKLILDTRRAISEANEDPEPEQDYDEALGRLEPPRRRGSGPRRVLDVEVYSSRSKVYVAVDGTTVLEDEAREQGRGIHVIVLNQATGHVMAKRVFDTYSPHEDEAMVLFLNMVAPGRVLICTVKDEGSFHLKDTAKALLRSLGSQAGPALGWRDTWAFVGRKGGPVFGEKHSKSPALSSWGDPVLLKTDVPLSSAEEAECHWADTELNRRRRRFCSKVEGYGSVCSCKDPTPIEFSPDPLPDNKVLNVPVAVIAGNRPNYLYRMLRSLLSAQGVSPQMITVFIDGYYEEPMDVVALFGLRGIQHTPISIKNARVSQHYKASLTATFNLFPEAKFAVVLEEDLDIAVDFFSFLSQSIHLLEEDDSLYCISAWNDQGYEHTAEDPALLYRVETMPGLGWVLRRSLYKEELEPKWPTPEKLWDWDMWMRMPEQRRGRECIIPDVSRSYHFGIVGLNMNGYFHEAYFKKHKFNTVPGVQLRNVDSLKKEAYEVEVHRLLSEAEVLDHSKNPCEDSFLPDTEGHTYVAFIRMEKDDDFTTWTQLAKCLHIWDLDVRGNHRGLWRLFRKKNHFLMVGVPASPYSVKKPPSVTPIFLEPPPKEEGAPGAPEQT
UniProt Q9NVS9: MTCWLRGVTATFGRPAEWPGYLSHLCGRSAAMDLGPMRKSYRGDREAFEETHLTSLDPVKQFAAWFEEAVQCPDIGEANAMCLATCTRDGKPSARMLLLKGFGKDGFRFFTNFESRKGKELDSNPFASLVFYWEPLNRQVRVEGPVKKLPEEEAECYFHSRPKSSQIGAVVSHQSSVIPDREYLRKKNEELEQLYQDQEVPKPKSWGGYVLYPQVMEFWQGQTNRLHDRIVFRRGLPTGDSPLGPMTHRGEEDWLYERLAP
UniProt Q8IWE5: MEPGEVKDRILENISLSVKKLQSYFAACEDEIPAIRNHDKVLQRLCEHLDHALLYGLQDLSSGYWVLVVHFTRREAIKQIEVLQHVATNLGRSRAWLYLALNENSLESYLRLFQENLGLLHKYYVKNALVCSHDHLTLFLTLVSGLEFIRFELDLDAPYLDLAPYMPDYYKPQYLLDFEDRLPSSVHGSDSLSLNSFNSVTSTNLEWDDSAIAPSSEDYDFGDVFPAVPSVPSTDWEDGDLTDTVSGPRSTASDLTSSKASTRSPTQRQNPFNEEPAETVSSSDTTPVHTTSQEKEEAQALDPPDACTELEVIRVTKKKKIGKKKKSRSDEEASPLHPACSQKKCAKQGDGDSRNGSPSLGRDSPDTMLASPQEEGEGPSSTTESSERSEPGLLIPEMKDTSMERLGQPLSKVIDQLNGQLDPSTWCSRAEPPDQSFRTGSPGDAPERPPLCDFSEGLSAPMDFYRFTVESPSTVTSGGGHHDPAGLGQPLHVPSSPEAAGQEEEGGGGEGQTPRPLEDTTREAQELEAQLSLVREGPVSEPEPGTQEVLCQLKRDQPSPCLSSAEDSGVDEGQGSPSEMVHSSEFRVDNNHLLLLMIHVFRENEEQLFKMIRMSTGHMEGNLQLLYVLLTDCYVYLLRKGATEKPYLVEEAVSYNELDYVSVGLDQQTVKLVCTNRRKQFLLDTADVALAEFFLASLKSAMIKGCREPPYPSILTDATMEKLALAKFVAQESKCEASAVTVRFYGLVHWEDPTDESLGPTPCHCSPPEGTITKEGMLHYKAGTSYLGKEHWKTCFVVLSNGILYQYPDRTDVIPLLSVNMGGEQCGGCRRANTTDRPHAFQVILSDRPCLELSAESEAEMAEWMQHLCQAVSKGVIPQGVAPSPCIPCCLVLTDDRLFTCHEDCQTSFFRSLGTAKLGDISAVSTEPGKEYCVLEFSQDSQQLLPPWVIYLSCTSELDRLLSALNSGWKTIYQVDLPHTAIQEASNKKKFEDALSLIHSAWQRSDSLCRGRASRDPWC
UniProt Q9H5K3: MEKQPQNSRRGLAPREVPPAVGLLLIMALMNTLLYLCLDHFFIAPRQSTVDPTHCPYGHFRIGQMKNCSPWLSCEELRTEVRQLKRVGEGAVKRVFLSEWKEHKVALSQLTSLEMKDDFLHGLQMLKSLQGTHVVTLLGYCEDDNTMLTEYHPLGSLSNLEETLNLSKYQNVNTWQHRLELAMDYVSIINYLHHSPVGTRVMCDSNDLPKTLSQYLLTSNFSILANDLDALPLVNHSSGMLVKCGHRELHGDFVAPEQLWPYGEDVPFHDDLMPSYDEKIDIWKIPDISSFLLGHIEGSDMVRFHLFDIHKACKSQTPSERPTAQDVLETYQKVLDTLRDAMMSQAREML
UniProt Q9H1D9: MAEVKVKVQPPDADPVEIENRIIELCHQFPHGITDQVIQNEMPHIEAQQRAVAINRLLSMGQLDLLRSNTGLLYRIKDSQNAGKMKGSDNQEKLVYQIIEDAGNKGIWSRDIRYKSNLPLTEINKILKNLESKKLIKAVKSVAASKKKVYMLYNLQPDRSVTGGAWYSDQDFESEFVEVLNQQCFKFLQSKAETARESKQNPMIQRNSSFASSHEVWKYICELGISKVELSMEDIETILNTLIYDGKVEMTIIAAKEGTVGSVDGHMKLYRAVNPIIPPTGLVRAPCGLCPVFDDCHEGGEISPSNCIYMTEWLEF
UniProt Q9Y2G5: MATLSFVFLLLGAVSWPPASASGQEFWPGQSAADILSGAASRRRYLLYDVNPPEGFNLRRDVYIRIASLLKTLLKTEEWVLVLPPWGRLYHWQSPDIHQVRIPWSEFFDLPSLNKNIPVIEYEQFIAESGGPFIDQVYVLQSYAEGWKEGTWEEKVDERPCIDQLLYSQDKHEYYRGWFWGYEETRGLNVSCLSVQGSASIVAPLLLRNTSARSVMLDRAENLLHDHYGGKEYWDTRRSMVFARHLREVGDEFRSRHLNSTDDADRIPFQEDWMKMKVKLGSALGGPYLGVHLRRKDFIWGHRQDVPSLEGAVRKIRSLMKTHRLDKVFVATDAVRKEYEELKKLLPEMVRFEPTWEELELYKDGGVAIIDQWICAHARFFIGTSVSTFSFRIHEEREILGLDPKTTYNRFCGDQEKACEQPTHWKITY
UniProt Q9NRX1: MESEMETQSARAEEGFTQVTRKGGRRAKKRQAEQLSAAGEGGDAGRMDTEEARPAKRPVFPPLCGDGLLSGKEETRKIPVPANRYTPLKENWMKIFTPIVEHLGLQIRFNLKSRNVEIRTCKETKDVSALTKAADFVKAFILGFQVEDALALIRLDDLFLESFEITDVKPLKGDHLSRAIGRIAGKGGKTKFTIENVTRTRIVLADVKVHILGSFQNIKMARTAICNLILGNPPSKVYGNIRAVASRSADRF
UniProt Q9NZ53: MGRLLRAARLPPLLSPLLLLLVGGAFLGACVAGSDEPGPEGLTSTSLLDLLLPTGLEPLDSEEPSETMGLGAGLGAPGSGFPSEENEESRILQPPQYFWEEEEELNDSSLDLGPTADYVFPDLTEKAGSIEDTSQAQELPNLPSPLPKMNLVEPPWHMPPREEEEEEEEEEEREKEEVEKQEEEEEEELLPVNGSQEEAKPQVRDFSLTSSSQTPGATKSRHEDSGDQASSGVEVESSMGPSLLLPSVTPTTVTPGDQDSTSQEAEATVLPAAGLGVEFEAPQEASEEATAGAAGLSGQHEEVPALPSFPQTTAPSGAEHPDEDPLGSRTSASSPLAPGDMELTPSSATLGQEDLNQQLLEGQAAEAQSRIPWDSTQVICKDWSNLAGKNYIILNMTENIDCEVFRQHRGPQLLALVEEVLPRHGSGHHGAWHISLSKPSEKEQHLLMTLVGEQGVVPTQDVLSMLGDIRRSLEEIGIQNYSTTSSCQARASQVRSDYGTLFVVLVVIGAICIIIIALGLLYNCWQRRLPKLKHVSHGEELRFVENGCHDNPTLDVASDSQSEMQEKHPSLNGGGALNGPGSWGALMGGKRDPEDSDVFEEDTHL
UniProt Q92871: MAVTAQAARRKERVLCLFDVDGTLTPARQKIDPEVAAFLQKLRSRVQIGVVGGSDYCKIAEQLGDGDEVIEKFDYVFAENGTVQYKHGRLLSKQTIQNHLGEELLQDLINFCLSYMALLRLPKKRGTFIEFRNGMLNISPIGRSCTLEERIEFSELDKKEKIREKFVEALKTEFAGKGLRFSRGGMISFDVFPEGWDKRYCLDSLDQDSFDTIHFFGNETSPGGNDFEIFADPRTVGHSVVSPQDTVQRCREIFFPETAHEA
UniProt P53350, whole entry, looked up: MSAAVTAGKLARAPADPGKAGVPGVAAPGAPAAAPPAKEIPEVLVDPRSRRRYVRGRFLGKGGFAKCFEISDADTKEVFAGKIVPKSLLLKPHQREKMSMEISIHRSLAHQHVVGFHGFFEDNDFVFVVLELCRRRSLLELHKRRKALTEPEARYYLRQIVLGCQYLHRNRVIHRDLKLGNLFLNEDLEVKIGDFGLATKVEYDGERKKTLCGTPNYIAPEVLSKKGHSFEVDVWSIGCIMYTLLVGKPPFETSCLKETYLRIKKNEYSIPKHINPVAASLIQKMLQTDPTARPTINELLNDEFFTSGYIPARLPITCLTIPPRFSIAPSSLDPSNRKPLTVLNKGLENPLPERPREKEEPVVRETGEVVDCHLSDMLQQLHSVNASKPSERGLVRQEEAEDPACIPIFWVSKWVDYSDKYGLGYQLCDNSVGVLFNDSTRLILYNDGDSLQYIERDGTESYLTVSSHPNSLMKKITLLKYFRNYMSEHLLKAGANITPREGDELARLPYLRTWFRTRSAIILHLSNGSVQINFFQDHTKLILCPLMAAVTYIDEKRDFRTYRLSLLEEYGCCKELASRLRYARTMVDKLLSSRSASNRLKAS
UniProt Q9H2U2: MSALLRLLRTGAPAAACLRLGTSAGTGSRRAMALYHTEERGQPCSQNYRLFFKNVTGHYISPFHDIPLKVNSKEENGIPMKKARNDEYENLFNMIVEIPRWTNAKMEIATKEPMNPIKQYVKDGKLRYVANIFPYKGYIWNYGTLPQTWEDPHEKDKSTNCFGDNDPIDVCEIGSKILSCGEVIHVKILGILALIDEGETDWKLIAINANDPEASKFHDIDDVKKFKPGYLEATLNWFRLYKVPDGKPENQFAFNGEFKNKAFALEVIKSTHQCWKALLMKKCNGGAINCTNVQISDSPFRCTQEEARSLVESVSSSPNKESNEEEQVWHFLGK
UniProt P16435: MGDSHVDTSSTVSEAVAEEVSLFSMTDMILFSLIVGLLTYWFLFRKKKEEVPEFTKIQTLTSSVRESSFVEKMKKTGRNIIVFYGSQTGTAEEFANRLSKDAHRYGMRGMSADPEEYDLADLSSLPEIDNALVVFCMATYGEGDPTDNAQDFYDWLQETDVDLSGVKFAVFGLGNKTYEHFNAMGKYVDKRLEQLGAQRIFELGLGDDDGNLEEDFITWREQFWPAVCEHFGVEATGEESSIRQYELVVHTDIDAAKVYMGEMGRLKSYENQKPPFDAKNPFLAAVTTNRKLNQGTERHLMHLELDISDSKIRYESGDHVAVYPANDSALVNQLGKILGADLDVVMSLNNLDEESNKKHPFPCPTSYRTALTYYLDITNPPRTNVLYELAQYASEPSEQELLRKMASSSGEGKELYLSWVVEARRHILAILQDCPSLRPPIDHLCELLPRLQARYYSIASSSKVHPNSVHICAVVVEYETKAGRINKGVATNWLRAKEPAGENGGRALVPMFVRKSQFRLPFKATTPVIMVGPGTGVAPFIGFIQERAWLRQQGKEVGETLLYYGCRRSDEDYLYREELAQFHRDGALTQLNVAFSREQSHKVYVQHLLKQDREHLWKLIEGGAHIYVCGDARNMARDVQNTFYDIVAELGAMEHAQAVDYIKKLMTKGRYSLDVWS
UniProt O75817: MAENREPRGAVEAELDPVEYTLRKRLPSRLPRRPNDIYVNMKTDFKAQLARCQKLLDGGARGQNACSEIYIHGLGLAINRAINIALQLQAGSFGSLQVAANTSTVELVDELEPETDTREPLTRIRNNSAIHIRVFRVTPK
UniProt Q969H6: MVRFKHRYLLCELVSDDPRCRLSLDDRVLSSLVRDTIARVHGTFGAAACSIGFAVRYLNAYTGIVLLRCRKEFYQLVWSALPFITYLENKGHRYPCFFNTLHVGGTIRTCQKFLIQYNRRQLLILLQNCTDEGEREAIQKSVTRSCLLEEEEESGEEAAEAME
UniProt P49005: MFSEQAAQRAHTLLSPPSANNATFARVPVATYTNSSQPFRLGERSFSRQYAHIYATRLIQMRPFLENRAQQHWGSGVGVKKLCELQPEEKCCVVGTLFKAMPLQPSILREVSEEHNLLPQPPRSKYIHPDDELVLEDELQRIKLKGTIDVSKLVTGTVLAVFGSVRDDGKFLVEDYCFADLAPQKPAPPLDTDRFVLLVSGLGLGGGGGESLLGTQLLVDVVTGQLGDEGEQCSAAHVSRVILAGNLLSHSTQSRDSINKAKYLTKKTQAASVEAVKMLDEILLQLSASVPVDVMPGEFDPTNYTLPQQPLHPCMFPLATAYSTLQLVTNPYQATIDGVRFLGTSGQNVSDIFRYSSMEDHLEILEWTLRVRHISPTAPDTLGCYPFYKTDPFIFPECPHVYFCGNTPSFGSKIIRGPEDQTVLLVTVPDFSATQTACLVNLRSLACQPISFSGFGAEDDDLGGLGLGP

Columns and labels:
Assay in all cases: log2 fold change, soluble protein after heating vs DMSO (PISA); higher = thermal stabilisation; K562 cells, 10 uM, 30 min; active = over 0.2 and 3.5 SD of the protein, either way, in both replicates (recomputed)
[1] = compound: CC1=C(C=C(C=C1)NC(=O)C2=CC(=CC=C2)C(C)(C)C#N)NC3=CC4=C(C=C3)N=CN(C4=O)C
In short: (§1)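 Values are thermal stability changes relative to control samples and are taken from duplicates. They are stated as log2 fold changes. Before quantification by TMTpro 16plex LC-MS/MS with equalised channel sums, K562 cells at 2×10^6 cells/mL were treated with 10 μM compound for 30 min, heated in aliquots for 3 min across 48°C-58°C, pooled, extracted in PBS with 0.5% NP-40 at 4°C, and centrifuged at 21,000xg for 90 min to give the soluble supernatant.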

[2] = compound: CC1=C(C=C(C=C1)NC(=O)C2=CC(=CC=C2)N(C)C)NC(=O)C3=CC=C(C=C3)O
In short: as §1

[3] = compound: CC1=CC=C(C=C1)SC2=C3C=C(SC3=CN=C2)C(=O)N
In short: as §1

[4] = compound: CC1=NC(=CC=C1)C2=C(N=C(N2)C(C)(C)C)C3=CC4=NC=CN=C4C=C3
In short: as §1

Nexturastat A = compound: CCCCN(Cc1ccc(C(=O)NO)cc1)C(=O)Nc1ccccc1 [Nexturastat A]
In short: as §1

vemurafenib = compound: CCCS(=O)(=O)Nc1ccc(F)c(C(=O)c2c[nH]c3ncc(-c4ccc(Cl)cc4)cc23)c1F [vemurafenib]
In short: as §1

[5] = compound: CCCS(=O)(=O)Nc1ccc(F)c(C(=O)c2c[nH]c3ncc(Cl)cc23)c1F
In short: as §1

[6] = compound: CCCc1cc(C)[nH]c(=O)c1CNC(=O)c1cc(-c2ccnc(N3CCN(C)CC3)c2)cc2c1cnn2C(C)C
In short: as §1

givinostat = compound: CCN(CC)Cc1ccc2cc(COC(=O)Nc3ccc(C(=O)NO)cc3)ccc2c1 [givinostat]
In short: as §1

barasertib = compound: CCN(CCCOc1ccc2c(Nc3cc(CC(=O)Nc4cccc(F)c4)[nH]n3)ncnc2c1)CCOP(=O)(O)O [barasertib]
In short: as §1

Measured: log2 fold change

POMGNT1 isoform 2 (UniProt Q8WZA1)
inactive: [1] -0.067 | [2] 0 | [3] -0.081 | [4] -0.06 | Nexturastat A 0.073 | vemurafenib -0.05 | [5] -0.121 | [6] 0.322 | givinostat -0.017 | barasertib 0.001

PLRG1 (UniProt O43660)
inactive: [1] 0.042 | [2] 0.013 | [3] 0.033 | [4] -0.012 | Nexturastat A -0.051 | vemurafenib 0.011 | [5] -0.014 | [6] -0.066 | givinostat -0.046 | barasertib -0.044

POLR3C (UniProt Q9BUI4)
inactive: [1] -0.037 | [2] 0.008 | [3] 0 | [4] -0.012 | Nexturastat A -0.013 | vemurafenib 0.029 | [5] 0.023 | [6] 0.002 | givinostat -0.027 | barasertib 0.012

PNPO (UniProt Q9NVS9)
inactive: [1] 0.012 | [2] -0.035 | [3] 0.025 | [4] -0.011 | Nexturastat A -0.075 | vemurafenib -0.013 | [5] -0.019 | [6] 0.051 | givinostat 0.016 | barasertib -0.001

PLEKHM2 (UniProt Q8IWE5)
inactive: [1] 0.064 | [2] 0.035 | [3] 0.052 | [4] -0.011 | Nexturastat A -0.028 | vemurafenib 0.075 | [5] 0.124 | [6] 0.038 | givinostat 0.177 | barasertib 0.076

POLR2I (UniProt P36954)
inactive: [1] -0.063 | [2] -0.011 | [3] -0.015 | [4] 0.001 | Nexturastat A 0.055 | vemurafenib -0.086 | [5] -0.081 | [6] -0.057 | givinostat -0.151 | barasertib 0.085

POLR2F (UniProt P61218)
inactive: [1] 0.117 | [2] -0.069 | [3] 0.032 | [4] 0.058 | Nexturastat A -0.077 | vemurafenib -0.065 | [5] -0.029 | [6] 0.745 | givinostat -0.025 | barasertib -0.085

PPIA (UniProt P62937)
inactive: [1] 0.019 | [2] -0.036 | [3] 0.01 | [4] 0.039 | Nexturastat A -0.08 | vemurafenib 0.001 | [5] 0 | [6] 0 | givinostat -0.028 | barasertib 0.071

PLPP6 (UniProt Q8IY26)
inactive: [1] -0.091 | [2] 0.034 | [3] 0.24 | [4] -0.041 | Nexturastat A -0.096 | vemurafenib 0.034 | [5] 0.202 | [6] -0.075 | givinostat -0.064 | barasertib -0.012

POMK (UniProt Q9H5K3)
inactive: [1] 0.029 | [2] -0.018 | [3] 0.028 | [4] 0 | Nexturastat A -0.01 | vemurafenib 0.04 | [5] 0.041 | [6] 0 | givinostat 0.002 | barasertib 0.11

POLR3F (UniProt Q9H1D9)
inactive: [1] -0.03 | [2] 0.015 | [3] -0.04 | [4] -0.007 | Nexturastat A -0.005 | vemurafenib 0.014 | [5] -0.027 | [6] 0.016 | givinostat 0.027 | barasertib -0.018

Copied from the results shown (8 entries):
PLRG1 (UniProt O43660)
inactive: [1] 0.042 | [2] 0.013 | [3] 0.033 | [4] -0.012 | Nexturastat A -0.051 | vemurafenib 0.011 | [5] -0.014 | [6] -0.066 | givinostat -0.046 | barasertib -0.044

POLR3C (UniProt Q9BUI4)
inactive: [1] -0.037 | [2] 0.008 | [3] 0 | [4] -0.012 | Nexturastat A -0.013 | vemurafenib 0.029 | [5] 0.023 | [6] 0.002 | givinostat -0.027 | barasertib 0.012

PNPO (UniProt Q9NVS9)
inactive: [1] 0.012 | [2] -0.035 | [3] 0.025 | [4] -0.011 | Nexturastat A -0.075 | vemurafenib -0.013 | [5] -0.019 | [6] 0.051 | givinostat 0.016 | barasertib -0.001

PLEKHM2 (UniProt Q8IWE5)
inactive: [1] 0.064 | [2] 0.035 | [3] 0.052 | [4] -0.011 | Nexturastat A -0.028 | vemurafenib 0.075 | [5] 0.124 | [6] 0.038 | givinostat 0.177 | barasertib 0.076

POLR2I (UniProt P36954)
inactive: [1] -0.063 | [2] -0.011 | [3] -0.015 | [4] 0.001 | Nexturastat A 0.055 | vemurafenib -0.086 | [5] -0.081 | [6] -0.057 | givinostat -0.151 | barasertib 0.085

POLR2F (UniProt P61218)
inactive: [1] 0.117 | [2] -0.069 | [3] 0.032 | [4] 0.058 | Nexturastat A -0.077 | vemurafenib -0.065 | [5] -0.029 | [6] 0.745 | givinostat -0.025 | barasertib -0.085

PPIA (UniProt P62937)
inactive: [1] 0.019 | [2] -0.036 | [3] 0.01 | [4] 0.039 | Nexturastat A -0.08 | vemurafenib 0.001 | [5] 0 | [6] 0 | givinostat -0.028 | barasertib 0.071

PLPP6 (UniProt Q8IY26)
inactive: [1] -0.091 | [2] 0.034 | [3] 0.24 | [4] -0.041 | Nexturastat A -0.096 | vemurafenib 0.034 | [5] 0.202 | [6] -0.075 | givinostat -0.064 | barasertib -0.012

(cont.)

POFUT2 (UniProt Q9Y2G5)
inactive: [1] -0.005 | [2] -0.022 | [3] -0.056 | [4] -0.111 | Nexturastat A 0.097 | vemurafenib -0.14 | [5] -0.094 | [6] 0.051 | givinostat -0.014 | barasertib 0

PNO1 (UniProt Q9NRX1)
inactive: [1] 0.057 | [2] -0.027 | [3] -0.009 | [4] -0.035 | Nexturastat A 0.202 | vemurafenib 0.052 | [5] 0.044 | [6] 0.407 | givinostat 0.131 | barasertib -0.041

PODXL2 (UniProt Q9NZ53)
inactive: [1] 0.144 | [2] -0.013 | [3] 0.032 | [4] -0.06 | Nexturastat A 0 | vemurafenib -0.064 | [5] -0.038 | [6] -0.126 | givinostat -0.002 | barasertib -0.048

POLR1D (UniProt P0DPB6)
inactive: [1] 0.086 | [2] -0.065 | [3] 0.138 | [4] 0.088 | Nexturastat A 0.126 | vemurafenib -0.173 | [5] 0.049 | [6] 0.085 | givinostat 0.029 | barasertib 0.043

PNP (UniProt P00491)
inactive: [1] -0.02 | [2] -0.007 | [3] -0.006 | [4] 0.004 | Nexturastat A -0.047 | vemurafenib -0.006 | [5] -0.017 | [6] -0.02 | givinostat -0.021 | barasertib -0.005

POLG2 (UniProt Q9UHN1)
inactive: [1] -0.016 | [2] 0.028 | [3] -0.01 | [4] 0.02 | Nexturastat A 0 | vemurafenib -0.037 | [5] 0.007 | [6] -0.067 | givinostat -0.064 | barasertib -0.018

PMM1 (UniProt Q92871)
inactive: [1] -0.164 | [2] 0.007 | [3] -0.037 | [4] 0.027 | Nexturastat A -0.037 | vemurafenib -0.007 | [5] -0.012 | [6] -0.165 | givinostat -0.013 | barasertib -0.003

PLK1 (UniProt P53350)
active: givinostat -0.314
inactive: [1] 0.003 | [2] -0.052 | [3] -0.03 | [4] -0.012 | Nexturastat A 0.003 | vemurafenib 0.018 | [5] 0.029 | [6] 0.042 | barasertib 0.015

POGLUT1 (UniProt Q8NBL1)
inactive: [1] -0.063 | [2] -0.027 | [3] -0.081 | [4] -0.024 | Nexturastat A -0.025 | vemurafenib -0.139 | [5] -0.034 | [6] 0.043 | givinostat 0.052 | barasertib -0.022

PPA2 (UniProt Q9H2U2)
inactive: [1] 0.011 | [2] 0 | [3] 0.011 | [4] 0.018 | Nexturastat A -0.045 | vemurafenib -0.031 | [5] -0.02 | [6] -0.03 | givinostat -0.01 | barasertib 0

PPIB (UniProt P23284)
inactive: [1] 0 | [2] 0.011 | [3] -0.048 | [4] -0.045 | Nexturastat A 0.055 | vemurafenib -0.034 | [5] -0.058 | [6] 0.09 | givinostat -0.025 | barasertib -0.01

POR (UniProt P16435)
inactive: [1] 0.033 | [2] 0 | [3] 0.003 | [4] -0.001 | Nexturastat A -0.048 | vemurafenib 0.029 | [5] 0.008 | [6] 0.027 | givinostat 0.003 | barasertib 0.001

POP7 (UniProt O75817)
inactive: [1] 0.07 | [2] 0.012 | [3] 0 | [4] -0.01 | Nexturastat A 0.032 | vemurafenib -0.08 | [5] -0.02 | [6] -0.012 | givinostat 0.115 | barasertib 0.019

POU2F1 isoform 6 (UniProt P14859)
inactive: [1] 0.087 | [2] -0.007 | [3] 0.052 | [4] 0.127 | Nexturastat A -0.063 | vemurafenib 0.072 | [5] 0.24 | [6] -0.045 | givinostat 0.112 | barasertib 0.123

POP5 (UniProt Q969H6)
inactive: [1] -0.024 | [2] -0.034 | [3] -0.017 | [4] -0.003 | Nexturastat A 0.016 | vemurafenib 0.033 | [5] 0.024 | [6] -0.021 | givinostat -0.042 | barasertib -0.02

POLD2 (UniProt P49005)
inactive: [1] 0.036 | [2] 0.017 | [3] 0.142 | [4] 0.04 | Nexturastat A 0.055 | vemurafenib 0.021 | [5] 0.004 | [6] -0.056 | givinostat 0.027 | barasertib 0.058

POLR2H (UniProt P52434)
inactive: [1] 0.013 | [2] 0.004 | [3] 0.043 | [4] 0.02 | Nexturastat A -0.063 | vemurafenib -0.021 | [5] 0 | [6] -0.018 | givinostat 0.002 | barasertib 0.032

PNISR (UniProt Q8TF01)
inactive: [1] -0.053 | [2] -0.035 | [3] 0.013 | [4] -0.009 | Nexturastat A 0 | vemurafenib -0.017 | [5] 0.021 | [6] -0.001 | givinostat -0.014 | barasertib -0.005

POFUT1 (UniProt Q9H488)
inactive: [1] 0.039 | [2] -0.01 | [3] -0.038 | [4] -0.003 | Nexturastat A -0.013 | vemurafenib -0.014 | [5] -0.026 | [6] 0.035 | givinostat -0.009 | barasertib -0.002
